One molecule from article PMC8822347, “Sustained Control of Pyruvate Carboxylase by the Essential Second Messenger Cyclic di-AMP in Bacillus subtilis” (mBio, 2022) can be followed below.

No constants are given. Whether binding was seen depends on the method and setting. Binding seen in cells or lysates may run through a third protein. Some entries that bind do so weakly or less than the wild type. Sequences can lack the tags named with a protein.

For assay [1], the target named is T1, His-tagged DarB (bait on Ni-NTA column) (B. subtilis) (UniProt O31698).
T1 sequence: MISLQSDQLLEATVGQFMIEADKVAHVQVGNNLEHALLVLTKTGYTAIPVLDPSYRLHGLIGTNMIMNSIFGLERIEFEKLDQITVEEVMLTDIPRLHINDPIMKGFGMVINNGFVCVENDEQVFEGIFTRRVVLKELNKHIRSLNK
Nature of the assay: pull-down; His-tagged DarB or His-tagged YlxR bound to a Ni-NTA column; cell extract of B. subtilis expressing Strep-tagged PC (pGP1289) passed over; Western blot against His and Strep tags; only the target purified.

For assay [2], the target named is T2, His-tagged YlxR (negative-control bait on Ni-NTA column) (B. subtilis) (UniProt P32728).
T2 sequence: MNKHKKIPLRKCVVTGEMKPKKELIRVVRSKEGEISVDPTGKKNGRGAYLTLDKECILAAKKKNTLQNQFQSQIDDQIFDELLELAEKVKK
The assay is described as above.

B1: Strep-tagged PC (pyruvate carboxylase) (enzyme, UniProt Q9KWU4 1-1148)
chain: MSQQSIQKVLVANRGEIAIRIFRACTELNIRTVAVYSKEDSGSYHRYKADEAYLVGEGKKPIDAYLDIEGIIDIAKRNKVDAIHPGYGFLSENIHFARRCEEEGIVFIGPKSEHLDMFGDKVKAREQAEKAGIPVIPGSDGPAETLEAVEQFGQANGYPIIIKASLGGGGRGMRIVRSESEVKEAYERAKSEAKAAFGNDEVYVEKLIENPKHIEVQVIGDKQGNVVHLFERDCSVQRRHQKVIEVAPSVSLSPELRDQICEAAVALAKNVNYINAGTVEFLVANNEFYFIEVNPRVQVEHTITEMITGVDIVQTQILVAQGHSLHSKKVNIPEQKDIFTIGYAIQSRVTTEDPQNDFMPDTGKIMAYRSGGGFGVRLDTGNSFQGAVITPYYDSLLVKLSTWALTFEQAAAKMVRNLQEFRIRGIKTNIPFLENVAKHEKFLTGQYDTSFIDTTPELFNFPKQKDRGTKMLTYIGNVTVNGFPGIGKKEKPAFDKPLGVKVDVDQQPARGTKQILDEKGAEGLANWVKEQKSVLLTDTTFRDAHQSLLATRIRSHDLKKIANPTAALWPELFSMEMWGGATFDVAYRFLKEDPWKRLEDLRKEVPNTLFQMLLRSSNAVGYTNYPDNVIKEFVKQSAQSGIDVFRIFDSLNWVKGMTLAIDAVRDTGKVAEAAICYTGDILDKNRTKYDLAYYTSMAKELEAAGAHILGIKDMAGLLKPQAAYELVSALKETIDIPVHLHTHDTSGNGIYMYAKAVEAGVDIIDVAVSSMAGLTSQPSASGFYHAMEGNDRRPEMNVQGVELLSQYWESVRKYYSEFESGMKSPHTEIYEHEMPGGQYSNLQQQAKGVGLGDRWNEVKEMYRRVNDMFGDIVKVTPSSKVVGDMALYMVQNNLTEKDVYEKGESLDFPDSVVELFKGNIGQPHGGFPEKLQKLILKGQEPITVRPGELLEPVSFEAIKQEFKEQHNLEISDQDAVAYALYPKVFTDYVKTTESYGDISVLDTPTFFYGMTLGEEIEVEIERGKTLIVKLISIGEPQPDATRVVYFELNGQPREVVIKDESIKSSVQERLKADRTNPSHIAASMPGTVIKVLAEAGTKVNKGDHLMINEAMKMETTVQAPFSGTIKQVHVKNGEPIQTGDLLLEIEKA
Regarding B1, the binding result in assay [1] was “binds”; in assay [2], “no binding”.
